Test results taken from patent US11118200B2, “Method for preparing amines from aldehydes and ketones by biocatalysis” (COMMISSARIAT A L'ENERGIE ATOMIQUE ET AUX ENERGIES …, priority 2017, dated 2021).

Key:
enzyme of SEQ ID NO:1 [1] = assay: Semi-preparative-scale reductive amination (1 mmol) with ammonia as amine source; assay type: biochemical, Mycobacterium smegmatis; details: chiral GC-FID
enzyme of SEQ ID NO:1 [2] = assay: Reductive amination on 9 μmol scale, configuration of the amine product (UHPLC-UV-MS, chiral GC-FID); assay type: biochemical, Mycobacterium smegmatis; details: 30 mM carbonyl-containing compound; 0.5 mg/ml enzyme; 48 h at 30° C.; ammonia as amine source
enzyme of SEQ ID NO:2 [3] = assay: Semi-preparative-scale reductive amination (1 mmol) with ammonia as amine source; assay type: biochemical, Cystobacter fuscus DSM 2262; details: enzyme loading 0.5 mg/mL
enzyme of SEQ ID NO:2 [4] = assay: Reductive amination on 9 μmol scale, configuration of the amine product (UHPLC-UV-MS, chiral GC-FID); assay type: biochemical, Cystobacter fuscus DSM 2262; details: 30 mM carbonyl-containing compound; 0.5 mg/ml enzyme; 48 h at 30° C.; ammonia as amine source

Compound | cis/trans product ratio, SEQ ID NO: 1 (enzyme of SEQ ID NO:1 [1]) | ed of the amine obtained, SEQ ID NO: 1 (enzyme of SEQ ID NO:1 [1]) [%] | enantiomeric excess of the (S)-amine formed, enzyme of SEQ ID NO:1 (enzyme of SEQ ID NO:1 [2]) | Conversion, SEQ ID NO: 2 (enzyme of SEQ ID NO:2 [3]; 50 mM carbonyl-containing compound, 30° C.) [%] | TTN (total turnover), SEQ ID NO: 2 (enzyme of SEQ ID NO:2 [3]) | enantiomeric excess of the (S)-amine formed, enzyme of SEQ ID NO:2 (enzyme of SEQ ID NO:2 [4])
C[C@@H]1CCCC[C@@H]1N.Cl [(1S, 2R)-2-methylcyclohexylamine hydrochloride] | 90/10 | ≥ 99 | – | – | – | –
CCCC(C)=O [pentan-2-one] | – | – | 98% and > 97% | 57 | 3016 | 98% and > 97%

Several values for one entry are separate records, joined by “and”; a condition that tells them apart may be missing. Identical values can stand only once.
